Assay results reported in publication PMC9092267.
These are yes or no findings as the source states them, for the method shown. Binding seen in cells or lysates may run through a third protein. Here binding means that the protein was enriched with, or labelled near, the bait; the list need not be complete.

The chains behind the UniProt entries cited, without tags or fusion partners.
UniProt P67870: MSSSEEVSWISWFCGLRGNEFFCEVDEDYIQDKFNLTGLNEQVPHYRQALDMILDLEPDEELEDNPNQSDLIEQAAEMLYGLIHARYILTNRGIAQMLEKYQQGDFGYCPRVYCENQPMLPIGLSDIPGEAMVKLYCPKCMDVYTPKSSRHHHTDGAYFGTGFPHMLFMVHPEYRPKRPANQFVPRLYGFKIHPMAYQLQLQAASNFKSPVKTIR

Molecular target: GST-tagged CK2β, wild type (Homo sapiens) (UniProt P67870)
Experiment: affinity purification with mass spectrometry; Glutathione Sepharose 4B beads carrying GST-tagged CK2β in precleared whole HeLa lysate; label-free quantification; proteins obtained with GST only excluded; only the target purified

B1: DVL1, endogenous (protein, UniProt O14640 1-695)
chain: MAETKIIYHMDEEETPYLVKLPVAPERVTLADFKNVLSNRPVHAYKFFFKSMDQDFGVVKEEIFDDNAKLPCFNGRVVSWLVLAEGAHSDAGSQGTDSHTDLPPPLERTGGIGDSRPPSFHPNVASSRDGMDNETGTESMVSHRRERARRRNREEAARTNGHPRGDRRRDVGLPPDSASTALSSELESSSFVDSDEDGSTSRLSSSTEQSTSSRLIRKHKRRRRKQRLRQADRASSFSSITDSTMSLNIVTVTLNMERHHFLGISIVGQSNDRGDGGIYIGSIMKGGAVAADGRIEPGDMLLQVNDVNFENMSNDDAVRVLREIVSQTGPISLTVAKCWDPTPRSYFTVPRADPVRPIDPAAWLSHTAALTGALPRYGTSPCSSAVTRTSSSSLTSSVPGAPQLEEAPLTVKSDMSAVVRVMQLPDSGLEIRDRMWLKITIANAVIGADVVDWLYTHVEGFKERREARKYASSLLKHGFLRHTVNKITFSEQCYYVFGDLCSNLATLNLNSGSSGTSDQDTLAPLPHPAAPWPLGQGYPYQYPGPPPCFPPAYQDPGFSYGSGSTGSQQSEGSKSSGSTRSSRRAPGREKERRAAGAGGSGSESDHTAPSGVGSSWRERPAGQLSRGSSPRSQASATAPGLPPPHPTTKAYTVVGGPPGGPPVRELAAVPPELTGSRQSFQKAMGNPCEFFVDIM
binding: binds
